Experimental data: PubChem BioAssay AID652243 (Drosophila RNAi Screening Center, 2013)

- Assay: 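Fly genes required for human androgen receptor driven transcription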 (primary screen)
- Cell system: Drosophila S2R+ cells
- Knock-down reagent: long dsRNA against Drosophila genes
- Time to read-out: 72 h (48 h, then 24 h hormone)
- Conditions: synthetic androgen R1881 at 10 nM for 24 h
- Measured: 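Firefly light from an androgen-responsive reporter and Renilla control light per well, raw and unnormalised, for each of two replicates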
- Reading the numbers: firefly reporter light: higher = more light from androgen-responsive reporter; Renilla control light: higher = more constitutive control signal (cell number, transfection)
- Hit rule: 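Hit when the log firefly-to-Renilla ratio dropped or increased by a fixed fold versus the mean of GFP or LacZ controls across duplicate plates; lowering cut given as 1.5 and as 3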
- Meaning of the calls: active = hit: reporter lowered or raised; inactive = no hit
The screen tested about 24,000 reagents; shown is an unselected part of those with a known target gene and a result. In the full data, 246 (1%) are marked active. 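Plates not normalised; calls are printed but the firefly/Renilla ratio behind them is not deposited; fold cut for lowering reported inconsistently.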 The raw values are shown without normalisation. A number with no mark means an inactive call. Not stated in the record: the amount of reagent.

btn [DRSC26486] scored firefly reporter light, replicate 1 = 98918; firefly reporter light, replicate 2 = 80207; Renilla control light, replicate 1 = 1.72e5; Renilla control light, replicate 2 = 1.10e5.
Against CG3655 [DRSC18181], the entry reads firefly reporter light, replicate 1 = 1.98e5; firefly reporter light, replicate 2 = 2.58e5; Renilla control light, replicate 1 = 3.78e6; Renilla control light, replicate 2 = 3.21e6.
With knock-down of CG3655 [DRSC18477], the screen gave firefly reporter light, replicate 1 = 1.11e5; firefly reporter light, replicate 2 = 1.82e5; Renilla control light, replicate 1 = 2.64e6; Renilla control light, replicate 2 = 2.39e6.
With knock-down of CG3655 [DRSC22688] the results were firefly reporter light, replicate 1 = 3.27e5; firefly reporter light, replicate 2 = 2.61e5; Renilla control light, replicate 1 = 1.51e6; Renilla control light, replicate 2 = 1.43e6.
With knock-down of Ppcs [DRSC14127], the screen gave firefly reporter light, replicate 1 = 69406; firefly reporter light, replicate 2 = 66279; Renilla control light, replicate 1 = 4.82e5; Renilla control light, replicate 2 = 5.20e5.
CG5255 [DRSC15754] showed firefly reporter light, replicate 1 = 1.18e5; firefly reporter light, replicate 2 = 1.24e5; Renilla control light, replicate 1 = 2.22e6; Renilla control light, replicate 2 = 2.43e6.
For CG5255 [DRSC24877], the entry reads firefly reporter light, replicate 1 = 6.58e5; firefly reporter light, replicate 2 = 6.02e5; Renilla control light, replicate 1 = 7.01e5; Renilla control light, replicate 2 = 8.62e5.
Against RpL37-1 [DRSC20149], the values are firefly reporter light, replicate 1 = 3.06e5; firefly reporter light, replicate 2 = 2.80e5; Renilla control light, replicate 1 = 2.45e6; Renilla control light, replicate 2 = 1.60e6.
Silencing of RpL37-1 [DRSC21646] resulted in: firefly reporter light, replicate 1 = 4.34e5; firefly reporter light, replicate 2 = 3.09e5; Renilla control light, replicate 1 = 1.44e6; Renilla control light, replicate 2 = 1.01e6.
For psh [DRSC19990] the deposit lists firefly reporter light, replicate 1 = 7.93e5; firefly reporter light, replicate 2 = 7.04e5; Renilla control light, replicate 1 = 3.77e6; Renilla control light, replicate 2 = 3.37e6.
Against psh [DRSC28534], the entry reads firefly reporter light, replicate 1 = 3.04e5; firefly reporter light, replicate 2 = 3.32e5; Renilla control light, replicate 1 = 6.66e5; Renilla control light, replicate 2 = 1.24e6.
After knock-down of mu2 [DRSC08726] the results were firefly reporter light, replicate 1 = 9.22e5; firefly reporter light, replicate 2 = 8.81e5; Renilla control light, replicate 1 = 1.08e6; Renilla control light, replicate 2 = 1.16e6.
mu2 [DRSC21534] scored firefly reporter light, replicate 1 = 6.71e5; firefly reporter light, replicate 2 = 6.76e5; Renilla control light, replicate 1 = 2.20e6; Renilla control light, replicate 2 = 2.06e6.
With knock-down of CG10512 [DRSC11615], the record shows firefly reporter light, replicate 1 = 2.11e5; firefly reporter light, replicate 2 = 2.05e5; Renilla control light, replicate 1 = 2.05e6; Renilla control light, replicate 2 = 1.68e6.
Against CG10512 [DRSC27914] the deposit lists firefly reporter light, replicate 1 = 6.28e5; firefly reporter light, replicate 2 = 6.26e5; Renilla control light, replicate 1 = 1.79e6; Renilla control light, replicate 2 = 1.82e6.
Depletion of yellow-e2 [DRSC15169] came out at: firefly reporter light, replicate 1 = 88477; firefly reporter light, replicate 2 = 1.52e5; Renilla control light, replicate 1 = 1.03e6; Renilla control light, replicate 2 = 1.70e6.
CG32985 [DRSC02634] scored firefly reporter light, replicate 1 = 1.22e5; firefly reporter light, replicate 2 = 2.29e5; Renilla control light, replicate 1 = 7.39e5; Renilla control light, replicate 2 = 6.85e5.
CG32985 [DRSC24453] scored firefly reporter light, replicate 1 = 6.83e5; firefly reporter light, replicate 2 = 6.63e5; Renilla control light, replicate 1 = 8.54e5; Renilla control light, replicate 2 = 9.99e5.
Silencing of vib [DRSC17094] gave: firefly reporter light, replicate 1 = 75708; firefly reporter light, replicate 2 = 1.35e5; Renilla control light, replicate 1 = 1.25e6; Renilla control light, replicate 2 = 1.36e6.
With knock-down of CG15213 [DRSC10213] the results were firefly reporter light, replicate 1 = 2.12e5; firefly reporter light, replicate 2 = 2.31e5; Renilla control light, replicate 1 = 1.64e6; Renilla control light, replicate 2 = 2.96e6.
After knock-down of CG30280 [DRSC21761], the record shows firefly reporter light, replicate 1 = 6.31e5; firefly reporter light, replicate 2 = 5.97e5; Renilla control light, replicate 1 = 1.78e6; Renilla control light, replicate 2 = 2.08e6.

Reformatted: entries from further up.
predicted target,amplicon,"firefly reporter light, replicate 1","firefly reporter light, replicate 2","Renilla control light, replicate 1","Renilla control light, replicate 2"
CG3655,DRSC22688,3.27e5,2.61e5,1.51e6,1.43e6
Ppcs,DRSC14127,69406,66279,4.82e5,5.20e5
